Test: general procedure: solution-phase peptide synthesis; DCC
Conditions: acetate
[1] = late stage modification step, based on the starting methyl ester (II)

Substance | step yield [1] [%] | step yield (coupling step, based on the starting hexapeptide (IV))
H-Tyr-D-Ala-Gly-Phe-Leu-Arg-Arg-NH2 acetate (AGFLRR; N-terminal Tyr-D-, C-terminal amide, acetate; printed: Ala-Gly-Phe-Leu-Arg-Arg-) | 74 | –
Cbz-Tyr-D-Ala-Gly-Phe-Leu-Arg-Arg-OCH3 acetate | – | about 65%
H-Tyr-D-Ala-Gly-Phe-Leu-Arg-Arg-NHC4H9 acetate (AGFLRR; N-terminal Tyr-D-, C-terminal butylamide, acetate; printed: Ala-Gly-Phe-Leu-Arg-Arg-) | 63 | –
H-Tyr-D-Ala-Gly-Phe-Leu-Arg-Arg-N(CH3)2 acetate (AGFLRR; N-terminal Tyr-D-, C-terminal dimethylamide, acetate; printed: Ala-Gly-Phe-Leu-Arg-Arg-) | 69 | –
H-Tyr-D-Ala-Gly-Phe-Leu-Arg-Arg-NHC2H5 acetate (AGFLRR; N-terminal Tyr-D-, C-terminal ethylamide, acetate; printed: Ala-Gly-Phe-Leu-Arg-Arg-) | 81 | –

Source: patent US20240199693A1 (priority 2021, published 2024)
